Assay results from PubChem BioAssay AID485314 (National Center for Advancing Translational Sciences (NCATS), 2010).
“And” between values parts separate entries of the source, which are not always exact repeats. Equal values may be shown once. About 4,500 (1.3%) of roughly 340,000 compounds were called active. Inconclusive results, whose numbers are uncertain, are shown with a selection of clear calls. The call rests on the fitted dose curve; in most records, active means well fitted inhibition curve with a large enough effect; inconclusive means small, poorly fitted or top-dose-only effect, or another doubt; inactive means no such curve, though single readings can be large or run the other way. A potency beside an inconclusive call is a rough fit, not a confirmed value.

target: DNA polymerase beta (Homo sapiens) (UniProt P06746); test: qHTS Assay for Inhibitors of DNA Polymerase Beta; details: Pol beta primer extension/strand displacement, fluorescence kinetic; activity change, negative = inhibition: at 114 µM (top of the series)
How it was run: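 Kinetic readout of DNA synthesis with strand displacement by Pol beta. Compound and 10 nM enzyme sit 15 min at room temperature; 50 nM substrate starts the reaction, read immediately and at 10 min.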
On the % scale 0 is the no-effect control and ±100 the full control effect; potency means the concentration at half of the fitted maximal effect.

Row | Compound | Potency | activity change, negative = inhibition
1 | O=c1oc(-c2ccc(Br)o2)nc2ccccc12 | inconclusive: 89.1 µM [inhibitor, single point] | 
2 | O=C(NC1CCCC1)c1sc(=S)n2c1[nH]c(=O)c1ccccc12 | inconclusive: 8.91 µM [inhibitor, partial curve, poor fit] | 
3 | CN(C)S(=O)(=O)N(CC(=O)Nc1cccc(F)c1)c1ccccc1 | inconclusive: 4.47 µM [inhibitor, partial curve, poor fit] | 
4 | NC(CO)C(=O)NNCc1ccc(O)c(O)c1O (stereo unspecified) | inconclusive: 31.6 µM [inhibitor, partial curve] and inconclusive: 562 nM [inhibitor, full curve, poor fit] | 
5 | COc1ccc(NC(=O)C2CCCN(S(=O)(=O)c3ccc(Br)s3)C2)cc1 (stereo unspecified) |  | inactive: 0.453%
6 | CC(=O)N1CCc2cc(S(=O)(=O)NC(C(=O)Nc3ccc(C)cc3C)C(C)C)ccc21 (stereo unspecified) | inconclusive: 35.5 µM [inhibitor, partial curve] | 
7 | NC1(C(=O)O)CCc2cc(C(=O)O)ccc21 (stereo unspecified) | inconclusive: 22.4 µM [inhibitor, partial curve] | 
8 | Cn1c(=O)c2c(=O)cc(NNC(=O)CC#N)[nH]c2n(C)c1=O | inconclusive: 89.1 µM [inhibitor, single point] | 
9 | Oc1ccc(CNc2ccccc2F)c2cccnc12 |  | inactive: 5.29%
10 | CCOC(=O)Cc1nnc(NC(=O)c2ncn[nH]2)s1 |  | inactive: -0.261%
11 | CC(=O)Oc1cc2cccc(OC(C)=O)c(=O)c2c(OC(C)=O)c1OC(C)=O | active: 0.178 µM | 
12 | Clc1ccc(Cn2c(/C=C/c3ccco3)nc3ccccc32)cc1 |  | inactive: -12.8%
13 | O=C(O)C1CC=CCC1C(=O)N1CCN(c2nc(-c3ccccc3Cl)c3cc(Br)ccc3n2)CC1 (stereo unspecified) | inconclusive: 17.8 µM [inhibitor, partial curve, poor fit] | 
14 | CCOc1cc(C=O)c(Br)cc1OC1CCCC1 | inconclusive: 5.62 µM [inhibitor, full curve, poor fit] | 
15 | COc1cc(/C=C2\SC(=S)N(NS(=O)(=O)c3ccc(C)cc3)C2=O)ccc1O | active: 39.8 µM | 
16 | N#C/C(=C\c1ccc(O)c(O)c1)C(=O)Nc1cccc2ncccc12 | active: 0.794 µM | 
17 | COCc1ccc([C@@H]2C[C@H]3CN(Cc4cccc(Cl)c4)C(=O)[C@]34CCCN24)o1 | inconclusive: 89.1 µM [inhibitor, single point] | 
18 | CC1CCc2sc(C(=O)N/N=C/c3ccc([N+](=O)[O-])cc3)cc2C1 (stereo unspecified) | inconclusive: 56.2 µM [inhibitor, partial curve] | 
19 | CCOC(=O)c1c(NC(=O)c2cc(-c3cccc(OC)c3)on2)sc2c1CCCC2 | inconclusive: 100 µM [inhibitor, single point] | 
20 | CC(=O)C1=C(O)C(=O)N(CCc2c[nH]c3ccccc23)C1c1ccco1 (stereo unspecified) | active: 31.6 µM | 
21 | O=C(N/N=C/c1ccc(OC(F)F)cc1)c1ccc(Br)cc1 | active: 79.4 µM | 
22 | Cc1sc2nc(CN3CCOCC3)nc(N3CCC(C(N)=O)CC3)c2c1C | inconclusive: 3.98 µM [inhibitor, single point] | 
23 | CCNC(=O)COC(=O)c1cc(-c2ccco2)nc2ccccc12 | active: 12.6 µM | 

Row | Compound | Potency | activity change, negative = inhibition
24 | Cc1cccc(NC(=O)c2ccccc2NC(=O)c2ccco2)c1 |  | inactive: -29.2%
25 | COCCn1c(=S)[nH]c2ncccc2c1=O | inconclusive: 100 µM [inhibitor, single point] | 
26 | O=C(COc1ccc(F)cc1)Nc1ccc2nc(SCC(=O)N3CCOCC3)sc2c1 |  | inactive: 7.65%
27 | CCn1c(COc2ccc3c(c2)OCO3)nnc1SCC(=O)c1ccccc1 | inconclusive: 11.2 µM [inhibitor, full curve] | 
28 | CCCN(C(=O)c1cc2c(=O)[nH]c3ccc(C)cc3c2s1)c1ccc(CC)cc1 | inconclusive: 28.2 µM [inhibitor, full curve, poor fit] | 
29 | COc1cccc(C(C)NC(=O)C2CCCC2)c1 (stereo unspecified) | inconclusive: 89.1 µM [inhibitor, single point] | 
30 | CCOC(=O)C1CCCN(C(=O)c2nn(-c3ccc(C)cc3)c(=O)n(C)c2=O)C1 (stereo unspecified) | inconclusive: 89.1 µM [inhibitor, single point] | 
31 | CCCSc1nnc(NC(=O)c2sc3nc(-c4cccs4)ccc3c2N)s1 | active: 17.8 µM | 
32 | COc1cc(OC)cc(C(=O)NC(=S)Nc2ccc3oc(=O)ccc3c2)c1 | inconclusive: 0.398 µM [inhibitor, full curve, poor fit] | 
33 | COc1ccc(C2C(C(C)=O)=C(C)N=c3s/c(=C/c4ccc5c(c4)OCO5)c(=O)n32)cc1 (stereo unspecified) | active: 11.2 µM | 
34 | CCOC(=O)c1ccc(NC(=O)N2CCc3ccccc32)cc1 | inconclusive: 35.5 µM [inhibitor, full curve] | 
35 | CC(C)(C)c1ccc(OCCOCCn2cnc3ccccc3c2=O)cc1 | inconclusive: 89.1 µM [inhibitor, single point] | 
36 | O=C(/C=C/c1ccc(Cl)cc1Cl)c1ccc[nH]1 |  | inactive: 13.9%
38 | CCOc1ccc(NC(=O)CSc2ccc(-c3ccco3)nn2)cc1 | inconclusive: 28.2 µM [inhibitor, single point] | 
39 | CCc1cccc(NC(=O)CCS(=O)(=O)c2ccc(Br)cc2)c1 | active: 7.08 µM | 
40 | O=C(CSc1nnc(NC(=O)c2cccc(F)c2)s1)NCc1ccco1 |  | inactive: 7.08%
41 | Cc1ccccc1NC(=O)Cn1cc(C(=O)c2cccs2)c2ccccc21 |  | inactive: -21.9%
42 | Cc1ccsc1CN1CCc2nc(Nc3ccccc3)ncc2C1 | inconclusive: 79.4 µM [inhibitor, single point] | 
43 | N#C/C(=C/c1ccc(O)c(O)c1)c1nc2ccccc2[nH]1 |  | inconclusive: -75.4% [inhibitor]
44 | CCOC(=O)C1=C(C)N=c2s/c(=C\c3ccc(OCC(=O)O)cc3)c(=O)n2C1c1ccccc1OC (stereo unspecified) |  | inactive: 12.5%
45 | Cc1csc(NC(=O)CCS(=O)(=O)c2ccc(Br)cc2)n1 | inconclusive: 39.8 µM [inhibitor, single point] | 
46 | O=C(Cn1c(SCc2ccccc2F)nc2ccncc21)Nc1ccccc1C(F)(F)F |  | inactive: -0.375%

Some of the entries so far, as a markdown table.

| Row | Compound | Potency | activity change, negative = inhibition |
| --- | --- | --- | --- |
| 29 | COc1cccc(C(C)NC(=O)C2CCCC2)c1 (stereo unspecified) | inconclusive: 89.1 µM [inhibitor, single point] |  |
| 36 | O=C(/C=C/c1ccc(Cl)cc1Cl)c1ccc[nH]1 |  | inactive: 13.9% |
